From PubChem BioAssay AID651768 (National Center for Advancing Translational Sciences (NCATS), 2012)
In all, about 360,000 compounds went through this assay and about 1,700 (0.47%) were called active. Inconclusive means that the source gave no clear call. Such entries were picked first, then a sample of the others. Calls come from the whole dose curve; as a rule, active = well fitted inhibition curve with a large enough effect; inconclusive = small, poorly fitted or top-dose-only effect; inactive = no such curve, though single readings can be large or run the other way. Where the call is inconclusive, the potency comes from a doubtful curve fit.

Protein sequences, listed by entry. Tags and fused reporters are not part of them.
UniProt Q14191, whole entry, looked up: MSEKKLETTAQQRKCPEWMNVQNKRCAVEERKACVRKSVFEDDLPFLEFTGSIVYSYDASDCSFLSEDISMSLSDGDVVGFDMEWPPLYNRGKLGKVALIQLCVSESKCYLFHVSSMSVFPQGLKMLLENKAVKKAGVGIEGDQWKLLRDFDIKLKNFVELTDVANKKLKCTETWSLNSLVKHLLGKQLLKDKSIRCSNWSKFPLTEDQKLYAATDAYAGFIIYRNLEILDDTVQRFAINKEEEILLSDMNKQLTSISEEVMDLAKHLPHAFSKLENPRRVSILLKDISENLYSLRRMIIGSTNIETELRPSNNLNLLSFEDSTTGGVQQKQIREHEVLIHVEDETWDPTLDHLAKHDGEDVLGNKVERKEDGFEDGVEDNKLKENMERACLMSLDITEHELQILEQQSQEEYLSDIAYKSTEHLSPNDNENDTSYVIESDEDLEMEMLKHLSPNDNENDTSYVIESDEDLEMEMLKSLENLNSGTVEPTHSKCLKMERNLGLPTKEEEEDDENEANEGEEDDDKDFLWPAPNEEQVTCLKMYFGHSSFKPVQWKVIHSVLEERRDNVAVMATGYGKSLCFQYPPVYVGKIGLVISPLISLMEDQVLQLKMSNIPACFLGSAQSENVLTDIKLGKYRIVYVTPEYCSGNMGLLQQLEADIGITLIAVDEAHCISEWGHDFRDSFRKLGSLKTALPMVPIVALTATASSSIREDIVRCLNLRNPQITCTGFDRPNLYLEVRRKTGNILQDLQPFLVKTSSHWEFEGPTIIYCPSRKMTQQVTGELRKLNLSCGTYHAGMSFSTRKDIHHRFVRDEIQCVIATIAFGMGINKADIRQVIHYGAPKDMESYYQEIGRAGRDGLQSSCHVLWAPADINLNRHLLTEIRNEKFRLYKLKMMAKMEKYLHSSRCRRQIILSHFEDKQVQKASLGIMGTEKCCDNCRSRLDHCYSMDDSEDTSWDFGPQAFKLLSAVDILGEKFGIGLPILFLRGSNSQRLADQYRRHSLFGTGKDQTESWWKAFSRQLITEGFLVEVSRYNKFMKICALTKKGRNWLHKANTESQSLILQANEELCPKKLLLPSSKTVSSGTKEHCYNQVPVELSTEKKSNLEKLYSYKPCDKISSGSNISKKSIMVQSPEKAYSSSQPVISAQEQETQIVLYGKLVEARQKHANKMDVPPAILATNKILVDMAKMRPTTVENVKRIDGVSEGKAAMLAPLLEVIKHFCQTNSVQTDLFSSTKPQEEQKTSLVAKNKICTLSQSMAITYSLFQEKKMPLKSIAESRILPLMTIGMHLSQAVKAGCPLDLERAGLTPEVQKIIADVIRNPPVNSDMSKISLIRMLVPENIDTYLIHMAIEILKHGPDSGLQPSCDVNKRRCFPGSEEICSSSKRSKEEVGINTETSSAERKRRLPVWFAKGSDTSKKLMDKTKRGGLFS

Each compound was assayed against Bifunctional 3'-5' exonuclease/ATP-dependent helicase WRN (Homo sapiens) (UniProt Q14191) (assay: qHTS for Inhibitors of WRN Helicase). Conditions: WRN helicase unwinding, fluorescent forked duplex, kinetic; activity change, negative = inhibition: at 114 µM (top of the series) unless noted.
Procedure, shortened: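 Kinetic fluorescence helicase assay: unwinding of a quenched forked DNA duplex (100 nM final) with 2 mM ATP final raises red fluorescence (525/598 nm). Compounds sat 15 min at room temperature with 20 nM WRN beforehand.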
% is set by controls: 0 for no effect and ±100 for the full control effect; potency is the fitted concentration of half-maximal effect.
Note: nearly all actives have a fitted effect of over 55% in size.

Row | Structure (SMILES) | activity change, negative = inhibition | Potency
1 | CC#CCCCC(=O)Nc1cccc(C(=O)O)c1 | inactive: -14.5% [at 57.1 µM] | –
2 | OCCCNc1nc(-c2ccccc2)nc2c1oc1ccccc12 | – | inconclusive: 35.5 µM [inhibitor, single point]
3 | Cc1ccnc(-n2sc3ccccc3c2=O)n1 | – | active: 31.6 µM
4 | C#CCOCCOCCOCCNc1nc(N2CCN(C(=O)CCCCCCCCCCNC(=O)Cn3cc(CCCCCN)nn3)CC2)nc(N2CCN(C(=O)CCCCCCCCCCNC(=O)[C@@H](CCSC)n3cc(CCO)nn3)CC2)n1 | – | inconclusive: 79.4 µM [inhibitor, partial curve]
5 | CO/N=C/NC(=O)c1ccc([N+](=O)[O-])c(CS(=O)(=O)c2ccc(Cl)cc2)c1 | – | inconclusive: 89.1 µM [inhibitor, single point]
6 | COC(=O)C(=O)/C=C(\O)c1c(C)cc(C)cc1C | inactive: -8.9% [at 57.1 µM] | –
7 | Cc1cc(C)n2c(=S)[nH]nc2n1 | – | active: 56.2 µM
8 | N#CCC(=O)Nc1sc2c(c1C(N)=O)CCCC2 | inactive: -25.1% | –
9 | Clc1ccccc1Nc1nnc(-c2ccncc2)s1 | – | inconclusive: 39.8 µM [inhibitor, single point]
10 | COc1cccc2c1C(=O)C=C(C)C2=O | inactive: 10.3% [at 11.6 µM] | –
11 | CCOC(=O)c1sc(=S)n(C)c1NC(=O)c1ccc(OC)cc1 | – | inconclusive: 35.5 µM [inhibitor, partial curve, poor fit]
12 | O=C(Nc1ccc(O)cc1)c1ccc2c(c1)C(=O)N(Cc1ccco1)C2=O | – | inconclusive: 35.5 µM [inhibitor, single point]
13 | Cc1ccc(C(=O)NC(=S)NCC2CCCO2)cc1[N+](=O)[O-] (stereo not drawn) | – | inconclusive: 89.1 µM [inhibitor, single point]
14 | COc1cc(OC)c(C2CC(=O)N3CN(c4ccccc4)CSC3=C2C#N)cc1OC (stereo not drawn) | inactive: -35% | –
15 | O=C(Nc1nc(-c2ccccn2)cs1)c1ccc([N+](=O)[O-])o1 | – | inconclusive: 56.2 µM [inhibitor, partial curve]
16 | COc1cccc(N=Nc2c(=O)[nH]n3c(=O)c4c([nH]c23)CCC4)c1 | – | inconclusive: 31.6 µM [inhibitor, partial curve]
17 | CCN(CC(=O)N1CCC(C(N)=O)CC1)S(=O)(=O)c1ccc(Cl)cc1 | inactive: -30% | –
18 | COc1cc(/C=C2/C(=O)NN(c3cccc(C)c3)C2=O)ccc1OC(=O)c1ccco1 | – | active: 44.7 µM
19 | N=C1/C(=C/c2coc3ccccc3c2=O)C(=O)N=C2SC(c3ccco3)=NN12 | – | active: 39.8 µM
20 | CCOc1cc(/C=C2\C(=O)N(Cc3ccc(C)cc3)C(C)=C2C(=O)OC)ccc1O | – | active: 79.4 µM
21 | CC(=O)Nc1cc(-c2ccc(N3CCN(C)CC3)cc2)cn2c(-c3ccc(S(C)(=O)=O)cc3)cnc12 | – | inconclusive: 28.2 µM [inhibitor, single point]
22 | O=C(CSc1nc(O)cc(=O)[nH]1)Nc1ccc2c(c1)CCC2 | – | inconclusive: 56.2 µM [inhibitor, partial curve]
23 | OCc1ccccc1SSc1ccccc1CO | – | active: 14.1 µM
24 | CSCCOC(=O)c1[nH]c2c(c1C)C(=O)CC(c1ccco1)C2 (stereo not drawn) | – | active: 56.2 µM
25 | N#Cc1ccc(CSc2nnc(NC(=O)c3ccc(=O)[nH]c3)s2)cc1 | – | inconclusive: 56.2 µM [inhibitor, partial curve]

Copied from above: compounds 18–24
Row | Structure (SMILES) | activity change, negative = inhibition | Potency
18 | COc1cc(/C=C2/C(=O)NN(c3cccc(C)c3)C2=O)ccc1OC(=O)c1ccco1 | – | active: 44.7 µM
19 | N=C1/C(=C/c2coc3ccccc3c2=O)C(=O)N=C2SC(c3ccco3)=NN12 | – | active: 39.8 µM
20 | CCOc1cc(/C=C2\C(=O)N(Cc3ccc(C)cc3)C(C)=C2C(=O)OC)ccc1O | – | active: 79.4 µM
21 | CC(=O)Nc1cc(-c2ccc(N3CCN(C)CC3)cc2)cn2c(-c3ccc(S(C)(=O)=O)cc3)cnc12 | – | inconclusive: 28.2 µM [inhibitor, single point]
22 | O=C(CSc1nc(O)cc(=O)[nH]1)Nc1ccc2c(c1)CCC2 | – | inconclusive: 56.2 µM [inhibitor, partial curve]
23 | OCc1ccccc1SSc1ccccc1CO | – | active: 14.1 µM
24 | CSCCOC(=O)c1[nH]c2c(c1C)C(=O)CC(c1ccco1)C2 (stereo not drawn) | – | active: 56.2 µM

Next compounds follow:

Row | Structure (SMILES) | activity change, negative = inhibition | Potency
26 | O=C(OCCCN1C(=O)c2ccccc2C1=O)c1ccco1 | inactive: 8.33% | –
27 | COc1cc(NC(=O)c2cccs2)c(OC)cc1NC(=O)c1ccco1 | – | inconclusive: 10 µM [inhibitor, partial curve]
28 | O=C(N/N=C/c1ccc(Cl)cc1Cl)c1ccc2nc[nH]c2c1 | inactive: -7.08% | –
29 | CCOc1ccccc1C(=O)NCc1ccco1 | – | inconclusive: 79.4 µM [inhibitor, partial curve]
30 | CN1c2ccsc2/C(=N/Nc2ccccc2)CS1(=O)=O | – | inconclusive: 56.2 µM [inhibitor, partial curve]
31 | CC(=O)Nc1c(O)nc(SCC(=O)Nc2nnc(CC(C)C)s2)[nH]c1=O | inactive: 3.65% | –
32 | Cc1ccc(NC(=O)CN2C(=O)N/C(=C/c3ccccc3OCc3cccc(C(=O)O)c3)C2=O)cc1 | – | active: 50.1 µM
33 | CCn1c(/C=N/Nc2ccc(C(=O)O)cc2)nc2ccccc21 | – | inconclusive: 89.1 µM [inhibitor, partial curve, poor fit]
34 | COc1ccc(OCc2nnc3n2N=C(c2ccccc2)C(CC(=O)O)S3)cc1 (stereo not drawn) | – | inconclusive: 39.8 µM [inhibitor, partial curve]
35 | COc1ccccc1Nc1n[nH]c(=S)s1 | – | inconclusive: 56.2 µM [inhibitor, partial curve]
36 | CCN(CC)S(=O)(=O)c1cccc(C(=O)N/N=C/c2cccc(O)c2O)c1 | – | inconclusive: 89.1 µM [inhibitor, partial curve]
37 | O=[N+]([O-])c1cc(Cc2ccccc2)cc(C=Nc2ccc(N3CCOCC3)cc2)c1O | – | inconclusive: 39.8 µM [inhibitor, partial curve]
38 | CCN(CC)S(=O)(=O)c1cc(NC(=O)c2ccccc2OCc2c(C)noc2C)ccc1C | – | inconclusive: 22.4 µM [inhibitor, single point]
39 | Cc1cccc(C)c1NC(=S)NC1CCCCC1 | inactive: -14.2% [at 57.1 µM] | –
40 | Cc1cc(SCC(=O)N/N=C/c2ccc(O)c(O)c2O)c(C)cc1Br | – | active: 50.1 µM
41 | O=C1NN(c2cccc(Br)c2)C(=O)/C1=C\c1ccc(O)cc1 | – | inconclusive: 63.1 µM [inhibitor, partial curve]
42 | Cc1ccccc1-c1nnnn1C1CCS(=O)(=O)C1 (stereo not drawn) | inactive: -0.29% | –
43 | C#CCOc1ccc(/C=C2/C(=O)N(c3cccc(C(=O)O)c3)N=C2C)cc1OC | – | inconclusive: 39.8 µM [inhibitor, single point]
44 | O=C1Nc2cc3c(cc2C1=O)sc1ccccc13 | – | active: 44.7 µM
46 | O=C(Cn1nc2n(c1=O)-c1ccccc1SC2)N/N=C/c1ccncc1 | – | inconclusive: 39.8 µM [inhibitor, single point]
47 | O=c1oc2cc(O)ccc2c2oc3cc(O)ccc3c12 | – | inconclusive: 79.4 µM [inhibitor, partial curve]
48 | CCc1c(C)[nH]n(-c2ccc(Oc3ccccc3)c(S(=O)(=O)O)c2)c1=O | – | inconclusive: 56.2 µM [inhibitor, partial curve]
49 | Oc1ccc2ccccc2c1CNc1ccccc1 | – | inconclusive: 56.2 µM [inhibitor, partial curve]
50 | CCOc1ccc(CCNC(=O)CSc2n[nH]c(N)n2)cc1OCC | – | inconclusive: 79.4 µM [inhibitor, partial curve]

Row | Structure (SMILES) | activity change, negative = inhibition | Potency
51 | CCc1nnc(NS(=O)(=O)c2ccc(NC(=S)NC(=O)/C=C/c3ccc(OC)cc3)cc2)s1 | – | inconclusive: 23.8 µM [inhibitor, single point]
52 | Cc1ccc(C(=O)OCC(=O)NCc2ccco2)s1 | – | inconclusive: 17.8 µM [inhibitor, full curve]
53 | CCN1CCN(C(=O)Nc2ccccc2OC)CC1 | inactive: -7.83% | –
54 | CCOc1ccccc1N(CC(=O)N1CCC(C)CC1)S(=O)(=O)c1ccc(C)cc1 | – | inconclusive: 56.2 µM [inhibitor, single point]
55 | Cc1ccccc1-n1c(C)cc(/C=N/Nc2ccc([N+](=O)[O-])cn2)c1C | inactive: -2.91% | –
56 | O=C(NCc1ccccc1F)C1CCCN(S(=O)(=O)c2ccc(-n3cnnn3)cc2)C1 (stereo not drawn) | – | inconclusive: 20 µM [inhibitor, single point]
57 | CC(C)c1ccc(NC(=O)C[n+]2ccn(C3=C([O-])c4ccccc4C3=O)c2)cc1 | inactive: -28.2% | –
58 | C=CCN1CCN(C(c2ccccc2)c2nnnn2CCC(C)C)CC1 (stereo not drawn) | – | inconclusive: 56.2 µM [inhibitor, partial curve]
59 | COc1ccc(S(=O)(=O)N2CCOCC2)cc1NC(=O)c1c(-c2ccccc2)noc1C | – | inconclusive: 89.1 µM [inhibitor, single point]
60 | O=C1CSC(=S)N1/N=C/c1cc(Br)c(O)c(Br)c1 | – | active: 20 µM
61 | CCOc1ccc(NC(=O)CN(C)C(=O)c2c(C)nn(-c3ccccc3)c2Cl)cc1OCC | inactive: -1.21% | –
62 | O=C(c1cccc(N2C(=O)C3C4C=CC(C4)C3C2=O)c1)N1CCCCCC1 (stereo not drawn) | inactive: -2.64% | –
63 | O=S(=O)(c1ccc2nc(-c3ccco3)c(-c3ccco3)nc2c1)N1CCOCC1 | – | inconclusive: 2.99 µM [inhibitor, partial curve]
64 | Nc1ccc(-c2nc3c(Cl)c(N)ccc3[nH]2)cc1 | – | inconclusive: 39.8 µM [inhibitor, full curve, poor fit]
65 | CC1=NN(c2ccc(Cl)c(C(=O)O)c2)C(=O)C1 | – | inconclusive: 8.91 µM [inhibitor, full curve, poor fit]
66 | O=C(CSCc1cc(=O)n2nc(C3CC3)sc2n1)Nc1ccccc1Cl | inactive: 11.5% | –
67 | CC1CCCC(NC(=O)CN2C(=O)NC(C)(c3cc(F)ccc3F)C2=O)C1C (stereo not drawn) | inactive: -1.03% | –
68 | O=C(NCCCO)c1ccc2nc(-c3ccco3)c(-c3ccco3)nc2c1 | – | inconclusive: 50.1 µM [inhibitor, partial curve]
69 | O=C(N/N=C/c1c(O)n(-c2ccccc2Cl)c(=O)c2ccccc12)C1COc2ccccc2O1 (stereo not drawn) | – | inconclusive: 22.4 µM [inhibitor, single point]
70 | CCn1c(SCC(=O)N/N=C/C=C/c2ccco2)nc2ccccc21 | – | inconclusive: 63.1 µM [inhibitor, single point]
71 | COC(=O)C1=C(C)N(c2cccc3ccccc23)C(=O)C1 | inactive: 6.16% | –
72 | CCCCCCCC(=O)OC(CN1CCCCC1)CN1CCCC1=O (stereo not drawn) | inactive: -0.834% | –
73 | COc1cc(/C=N/NC(=S)Nc2cccc(S(=O)(=O)N(C)C)c2)cc(OC)c1O | inactive: -9.52% | –
